Source: publication PMC3514159
Results are given in words; binding and its absence hold for the method and conditions named. In cells and extracts the contact can be indirect. Some results given as binding are weak or reduced against the parent protein; the word gives no strength.

By UniProt entry, the sequences of proteins in these tests, tags left out.
UniProt P48059: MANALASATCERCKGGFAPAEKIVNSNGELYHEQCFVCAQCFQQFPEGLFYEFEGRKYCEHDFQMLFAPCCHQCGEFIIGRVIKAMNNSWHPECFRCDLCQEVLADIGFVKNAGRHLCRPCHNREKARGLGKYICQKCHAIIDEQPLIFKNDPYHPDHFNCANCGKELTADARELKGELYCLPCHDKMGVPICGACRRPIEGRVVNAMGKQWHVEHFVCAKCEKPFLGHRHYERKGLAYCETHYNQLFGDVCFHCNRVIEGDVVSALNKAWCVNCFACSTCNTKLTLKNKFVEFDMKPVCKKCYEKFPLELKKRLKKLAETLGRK
UniProt Q9BYM8: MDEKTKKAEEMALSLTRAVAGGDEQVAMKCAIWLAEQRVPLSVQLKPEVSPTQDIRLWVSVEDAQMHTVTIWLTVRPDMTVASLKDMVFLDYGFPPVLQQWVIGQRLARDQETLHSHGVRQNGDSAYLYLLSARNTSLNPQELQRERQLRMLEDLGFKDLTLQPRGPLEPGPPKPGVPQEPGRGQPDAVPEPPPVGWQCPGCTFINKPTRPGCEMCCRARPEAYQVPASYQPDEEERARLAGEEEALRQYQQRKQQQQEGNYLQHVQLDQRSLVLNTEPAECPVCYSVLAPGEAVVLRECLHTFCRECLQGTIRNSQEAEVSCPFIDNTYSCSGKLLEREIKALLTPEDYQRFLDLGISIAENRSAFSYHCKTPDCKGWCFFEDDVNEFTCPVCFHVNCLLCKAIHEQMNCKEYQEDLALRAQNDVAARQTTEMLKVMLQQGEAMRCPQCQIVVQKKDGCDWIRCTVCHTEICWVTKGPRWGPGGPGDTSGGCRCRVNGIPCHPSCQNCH
UniProt O75865: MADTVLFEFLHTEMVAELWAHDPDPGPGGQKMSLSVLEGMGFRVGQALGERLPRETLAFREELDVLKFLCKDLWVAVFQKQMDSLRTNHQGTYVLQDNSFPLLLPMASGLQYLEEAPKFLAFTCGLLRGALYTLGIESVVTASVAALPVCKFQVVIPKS
UniProt P09022: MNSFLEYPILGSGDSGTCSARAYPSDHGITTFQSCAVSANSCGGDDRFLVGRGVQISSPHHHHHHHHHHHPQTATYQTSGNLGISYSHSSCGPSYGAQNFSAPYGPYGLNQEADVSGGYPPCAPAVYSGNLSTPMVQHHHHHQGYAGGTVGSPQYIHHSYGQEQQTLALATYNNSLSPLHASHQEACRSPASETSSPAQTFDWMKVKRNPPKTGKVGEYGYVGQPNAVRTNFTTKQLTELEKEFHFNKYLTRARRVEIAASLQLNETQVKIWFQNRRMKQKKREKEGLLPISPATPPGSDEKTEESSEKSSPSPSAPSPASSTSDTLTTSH

Assays:
Experiment in all cases: pull-down; GST-hORF and FLAG-Hoxa1 co-expressed in COS7 or HEK293T; cleared lysate (Tris-HCl pH7.5 20mM, NaCl 120mM, EDTA 0.5mM, NP40 0.5%, glycerol 10%) overnight on glutathione-agarose beads, 3 washes; anti-FLAG western blot
[1] = molecular target: LIM and senescent cell antigen-like domains 1 (human) (UniProt P48059)
[2] = molecular target: RanBP-type and C3HC4-type zinc finger containing 1 (human) (UniProt Q9BYM8)
[3] = molecular target: T1, TNF receptor-associated factor 1 (human) (UniProt Q13077)
T1 sequence: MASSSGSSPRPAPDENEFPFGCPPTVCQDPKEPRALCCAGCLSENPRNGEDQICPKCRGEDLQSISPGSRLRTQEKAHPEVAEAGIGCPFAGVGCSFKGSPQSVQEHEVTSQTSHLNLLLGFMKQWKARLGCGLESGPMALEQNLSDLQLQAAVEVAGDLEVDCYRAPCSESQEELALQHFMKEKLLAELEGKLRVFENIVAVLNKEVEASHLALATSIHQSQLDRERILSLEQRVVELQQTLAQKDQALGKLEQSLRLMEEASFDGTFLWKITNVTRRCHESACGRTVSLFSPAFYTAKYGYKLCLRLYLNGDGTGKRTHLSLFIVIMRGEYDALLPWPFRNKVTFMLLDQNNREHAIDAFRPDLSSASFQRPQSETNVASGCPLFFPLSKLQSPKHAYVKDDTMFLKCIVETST

[4] = molecular target: T2, four and a half LIM domains 5 (human) (UniProt Q5TD97)
T2 sequence: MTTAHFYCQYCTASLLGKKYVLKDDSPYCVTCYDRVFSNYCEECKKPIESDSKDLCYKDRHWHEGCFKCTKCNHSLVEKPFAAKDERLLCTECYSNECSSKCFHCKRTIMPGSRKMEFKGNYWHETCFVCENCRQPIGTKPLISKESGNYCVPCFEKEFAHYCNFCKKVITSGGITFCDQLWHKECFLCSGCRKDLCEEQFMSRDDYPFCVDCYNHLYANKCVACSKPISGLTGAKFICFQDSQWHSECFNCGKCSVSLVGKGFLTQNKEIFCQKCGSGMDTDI

[5] = molecular target: T3, lectin, galactoside-binding, soluble, 13 (human) (UniProt Q9UHV8)
T3 sequence: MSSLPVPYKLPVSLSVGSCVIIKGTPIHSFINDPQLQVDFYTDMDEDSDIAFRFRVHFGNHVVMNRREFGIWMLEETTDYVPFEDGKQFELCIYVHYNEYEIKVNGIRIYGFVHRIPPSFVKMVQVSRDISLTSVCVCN

[6] = molecular target: T4, phospholipid scramblase 1 (human) (UniProt O15162)
T4 sequence: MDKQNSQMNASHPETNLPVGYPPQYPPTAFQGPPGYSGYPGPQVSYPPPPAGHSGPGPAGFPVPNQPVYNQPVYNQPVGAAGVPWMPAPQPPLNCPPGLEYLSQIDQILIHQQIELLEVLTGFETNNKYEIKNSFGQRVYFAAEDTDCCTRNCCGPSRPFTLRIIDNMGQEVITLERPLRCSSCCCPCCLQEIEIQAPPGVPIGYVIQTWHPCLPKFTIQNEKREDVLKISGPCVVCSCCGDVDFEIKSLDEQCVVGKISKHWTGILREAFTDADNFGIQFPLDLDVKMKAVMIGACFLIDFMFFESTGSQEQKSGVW

[7] = molecular target: T5, thyroid hormone receptor interactor 6 (human) (UniProt Q15654)
T5 sequence: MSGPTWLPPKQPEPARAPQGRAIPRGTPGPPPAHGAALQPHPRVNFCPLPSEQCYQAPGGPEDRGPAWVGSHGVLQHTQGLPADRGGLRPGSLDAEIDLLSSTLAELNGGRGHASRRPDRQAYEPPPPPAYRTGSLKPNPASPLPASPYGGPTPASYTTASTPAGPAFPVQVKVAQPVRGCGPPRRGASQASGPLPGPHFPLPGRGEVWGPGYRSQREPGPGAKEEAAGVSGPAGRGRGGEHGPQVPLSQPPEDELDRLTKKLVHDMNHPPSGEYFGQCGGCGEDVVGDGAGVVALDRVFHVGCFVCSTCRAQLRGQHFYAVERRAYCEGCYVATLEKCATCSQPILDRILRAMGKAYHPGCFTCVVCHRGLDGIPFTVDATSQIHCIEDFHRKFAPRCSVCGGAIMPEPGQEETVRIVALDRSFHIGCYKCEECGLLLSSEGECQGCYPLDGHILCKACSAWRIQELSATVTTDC

[8] = molecular target: trafficking protein particle complex 6A (human) (UniProt O75865)

Measured: binding

FLAG-Hoxa1 (from UniProt P09022 1-331)
binds: all assays above
